Experimental data reported in PubChem BioAssay (NCATS).
The shares of active, inactive and inconclusive entries below differ from those in the screen. Potencies beside an inconclusive call are fits to weak or partial responses and may not hold up. Calls of active or inactive are those of the source. The call rests on the fitted dose curve; in most records, active means well fitted cell-killing curve with a large enough effect; inconclusive means small, poorly fitted or top-dose-only effect, or effect the other way; inactive means no such curve, though single readings can be large or run the other way.

Assay: Quantitative High-Throughput drug screen in 47 multiple myeloma cell lines against the NCATS MIPE library collection: KMS26_JCRB cell viability assay (AID 1918975); further: nearly all actives have a fitted effect of over 45% in size
Conditions: KMS26 myeloma cells viability, CellTiter-Glo ATP, 48 h; series mostly up to 45.8 µM
Text: PI: Beverly A. Mock Ph.D.
Laboratory of Cancer Biology and Genetics,
Center for Cancer Research, National Cancer Institute,
National Institute of Health, Bethesda, Maryland
Drug resistance and disease progression are common in multiple myeloma (MM) patients, underscoring the need for new therapeutic combinations. […] We hypothesized that effective combinations would reduce MYC expression and enhance p16 activity. […] These preclinical data identify potentially useful drug combinations for evaluation in drug-resistant MM and reveal potential mechanisms of combined drug sensitivity.
Described herein is the primary MIPE qHTS used to cherrypick compounds. Validated compounds were then further tested for potential synergistic activiy.
[1] Peat TJ, Gaikwad SM, Dubois W, Gyabaah-Kessie N, Zhang S, Gorjifard S, Phyo Z, Andres M, Hughitt VK, Simpson RM, Miller MA, Girvin AT, Taylor A, Williams D, D'Antonio N, Zhang Y, Rajagopalan A, Flietner E, Wilson K, Zhang X, Shinn P, Klumpp-Thomas C, McKnight C, Itkin Z, Chen L, Kazandijian D, Zhang J, Michalowski AM, Simmons JK, Keats J, Thomas CJ, Mock BA. Drug combinations identified by high-throughput screening promote cell cycle transition and upregulate Smad pathways in myeloma. Cancer Lett. 2023 Aug 1;568:216284. doi: 10.1016/j.canlet.2023.216284. Epub 2023 Jun 24. PMID: 37356470; PMCID: PMC10408729.
SEQUENCE No. (e.g., 1, 2, 3, etc.); […] (e.g., Cells, Incubation, Reagent, etc.); VALUE and DESCRIPTION.
1; Cells; 5 uL; white, solid bottom 1536-well Greiner assay plate.
2; Compounds; 23 nL; Kalypsis pin tool (Wako USA) equipped with a 1536-well pin head to transfer to the assay plates.
3; Incubation; 48 hours; 37C incubation.
4; Reagent;5uL; CellTiter Glo (Promega).
5; Detector; 425V; Luminescence; Viewlux PerkinElmer.
NOTES (numbers refer to Sequence numbers above)
1. The cell-based screening methods employed in this study were like those previously published. Briefly, the corresponding myeloma cell lines were screened in 1,536-well plates with 500 cells, 5-uL per well for inhibition of cell viability (assessed by measuring ATP levels with CellTiterGlo).
2. NCATS MIPE 4.0 library of approved and investigational drugs were added using the Kalypsis pin tool. Wells treated with DMSO only for 100% viability and media only wells for 0% viability were used as controls.
3. The assay plates were covered and incubated for 48 hours in a 37C, 5% CO2 incubator with controlled humidity.
4. After 48 hours, CellTilter-GloTM luminescent substrate mix (Promega) reagent was added to the assay plate and plates we incubated for 5 min at room temperature.
5. Signal was measured as median relative luminescence units on a ViewLux (PerkinElmer) multiplate reader.
[1] Heske CM, Davis MI, Baumgart JT, Wilson K, Gormally MV, Chen L, Zhang X, Ceribelli M, Duveau DY, Guha R, Ferrer M, Arnaldez FI, Ji J, Tran HL, Zhang Y, Mendoza A, Helman LJ, Thomas CJ. Matrix Screen Identifies Synergistic Combination of PARP Inhibitors and Nicotinamide Phosphoribosyltransferase (NAMPT) Inhibitors in Ewing Sarcoma. Clin Cancer Res. 2017 Dec 1;23(23):7301-7311. doi: 10.1158/1078-0432.CCR-17-1121. Epub 2017 Sep 12. PMID: 28899971; PMCID: PMC6636827.
Potency means the concentration at half of the fitted maximal effect.

Row | SMILES | Potency
1 | CC[C@H]1OC(=O)[C@H](C)C(=O)[C@H](C)[C@@H](O[C@H]2O[C@H](C)C[C@H](N(C)C)[C@@H]2O)[C@](C)(OC)C[C@@H](C)C(=O)[C@H](C)[C@H]2N(CCCCn3cnc(-c4cccnc4)c3)C(=O)O[C@]12C | inconclusive: 18.7 µM [cytotoxic, partial curve, poor fit]
2 | CN(C)[C@@H](CCOc1cccc2ccccc12)c1ccccc1 | inconclusive: 23.5 µM [cytotoxic, partial curve, poor fit]
3 | NC(=O)c1cnc(-c2ccc(C3(N)CCC3)cc2)c(-c2ccccc2)c1 | inconclusive: 6.62 µM [cytotoxic, partial curve, poor fit]
4 | COc1cc([C@@H]2c3cc4c(cc3[C@H](O)[C@H]3COC(=O)[C@H]23)OCO4)cc(OC)c1OC | inconclusive: 0.0026 µM [cytotoxic, full curve]
5 | Cc1ncc([N+](=O)[O-])n1CCO | inconclusive: 0.0105 µM [rising, full curve, poor fit]
6 | CC(C)Nc1cc(C(F)(F)F)cc2nc(NC(=O)c3cccnc3)nn12 | inconclusive: 6.62 µM [cytotoxic, full curve, poor fit]
7 | CN(C)CCC=C1c2ccccc2COc2ccc(CC(=O)O)cc21 | inconclusive: 0.001 µM [cytotoxic]
8 | N#C[C@H]1C[C@H]2C[C@@H]2N1C(=O)[C@@H](N)C12CC3CC(CC(O)(C3)C1)C2 | inconclusive: 5.9 µM [cytotoxic, partial curve, poor fit]
9 | CN1[C@H]2CC[C@H]1CC(OC(=O)c1c[nH]c3ccccc13)C2 (stereo not given in full) | inactive
10 | CCCCC(C)(C)[C@H](O)C=C[C@H]1[C@H](O)CC(=O)[C@H]1CC=CCCCC(=O)O | active: 16.6 µM
11 | CC1(C)O[C@@H]2C[C@H]3[C@@H]4CCC5=CC(=O)C=C[C@]5(C)[C@@H]4[C@@H](O)C[C@]3(C)[C@]2(C(=O)CO)O1 | inactive
12 | CC(C)NCC(O)COc1ccc(COCCOC(C)C)cc1 (stereo not given) | inactive
13 | CC[C@H](C=C[C@@H](C)[C@H]1CC[C@H]2[C@@H]3CC=C4C[C@@H](O)CC[C@]4(C)[C@@H]3CC[C@]12C)C(C)C | inconclusive: 0.0005 µM [cytotoxic, full curve, poor fit]
14 | CC(=O)OCC(=O)[C@@]1(O)CC[C@H]2[C@@H]3CCC4=CC(=O)C=C[C@]4(C)[C@@H]3[C@@H](O)C[C@@]21C | inconclusive: 20.9 µM [cytotoxic, partial curve, poor fit]
15 | COc1ncnc(NS(=O)(=O)c2ccc(N)cc2)c1OC | inactive
16 | Cc1ccc(C(C)(O)c2nc3ccccc3s2)c(C)c1 (stereo not given) | inactive
17 | CC=CC(=O)N(CC)c1ccccc1C | inconclusive: 0.0019 µM [cytotoxic, full curve, poor fit]
18 | CC[C@H]1OC(=O)[C@H](C)[C@@H](O[C@H]2C[C@@](C)(OC)[C@@H](O)[C@H](C)O2)[C@H](C)[C@@H](O[C@@H]2O[C@H](C)C[C@H](N(C)C)[C@@H]2O)[C@](C)(OC)C[C@@H](C)C(=O)[C@H](C)[C@@H](O)[C@]1(C)O | inactive
19 | Cc1ccc(Nc2cc(-c3cccc(N4C(=O)c5ccccc5C4=O)c3)ncn2)cc1NS(C)(=O)=O | inconclusive: 13.2 µM [cytotoxic, partial curve, poor fit]
20 | N[C@@H](Cc1cc(I)c(Oc2cc(I)c(O)c(I)c2)c(I)c1)C(=O)O | inconclusive: 0.0332 µM [cytotoxic, full curve, poor fit]

A draw from above in order of molar mass, ascending:
Row | SMILES | Potency
13 | CC[C@H](C=C[C@@H](C)[C@H]1CC[C@H]2[C@@H]3CC=C4C[C@@H](O)CC[C@]4(C)[C@@H]3CC[C@]12C)C(C)C | inconclusive: 0.0005 µM [cytotoxic, full curve, poor fit]
19 | Cc1ccc(Nc2cc(-c3cccc(N4C(=O)c5ccccc5C4=O)c3)ncn2)cc1NS(C)(=O)=O | inconclusive: 13.2 µM [cytotoxic, partial curve, poor fit]
1 | CC[C@H]1OC(=O)[C@H](C)C(=O)[C@H](C)[C@@H](O[C@H]2O[C@H](C)C[C@H](N(C)C)[C@@H]2O)[C@](C)(OC)C[C@@H](C)C(=O)[C@H](C)[C@H]2N(CCCCn3cnc(-c4cccnc4)c3)C(=O)O[C@]12C | inconclusive: 18.7 µM [cytotoxic, partial curve, poor fit]

Remaining list, next part.

Row | SMILES | Potency
21 | CCC=CC[C@H]1C(=O)CC[C@@H]1CC(=O)OC | inconclusive: 2.09 µM [cytotoxic, full curve, poor fit]
22 | OC(CN1CCN(c2cccc(Cl)c2)CC1)C(c1ccccc1)c1ccccc1 (stereo not given) | inconclusive: 0.0021 µM [rising, full curve, poor fit]
23 | Clc1ccc(C(Cn2ccnc2)OCc2c(Cl)cccc2Cl)c(Cl)c1 (stereo not given) | inconclusive: 33.2 µM [cytotoxic, single point]
24 | Nc1nc2c(ncn2COCCO)c(=O)[nH]1 | inactive
25 | CNC(=O)c1cc(COc2nnc(Nc3ccc(Cl)cc3)c3ccoc23)ccn1 | inconclusive: 29.6 µM [cytotoxic, single point]
26 | CCCCC(C=O)NC(=O)C(CC(C)C)NC(=O)OCc1ccccc1 (stereo not given) | inconclusive: 20.9 µM [cytotoxic, partial curve, poor fit]
27 | Cc1cc(O)c2c(c1)C(=O)c1cccc(O)c1C2=O | inactive
28 | C=CC[N+]1([C@H]2C[C@H]3[C@@H]4CC[C@H]5C[C@H](O)[C@@H](N6CCOCC6)C[C@]5(C)[C@@H]4CC[C@]3(C)[C@H]2OC(C)=O)CCCC1 | inconclusive: 37.2 µM [cytotoxic, single point]
29 | CCN1C[C@H](C)n2c(c(O)c3c(=O)n(Cc4ccc(F)c(Cl)c4)nc(C(=O)NC)c32)C1=O | inactive
30 | C[N+]1(C)[C@@H]2CC(OC(=O)[C@H](CO)c3ccccc3)C[C@H]1[C@H]1O[C@@H]12 (stereo not given in full) | inactive
31 | NC1=N[C@@]2(c3cc(NC(=O)c4ccc(F)cn4)ccc3F)COC[C@@H]2CS1 | inconclusive: 23.5 µM [cytotoxic, single point]
32 | O=C(NC1CCOCC1)c1ccc(-c2cc(-c3cn[nH]c3-c3ccccn3)ccn2)cc1 | inactive
33 | c1ccc2c(Oc3nc(Nc4ccc(N5CCOCC5)cc4)c4ncn(C5CCCCC5)c4n3)cccc2c1 | inconclusive: 0.0012 µM [cytotoxic, full curve, poor fit]
34 | Cc1nc2n(c(=O)c1CCN1CCC(c3noc4cc(F)ccc34)CC1)CCCC2 | inconclusive: 5.26 µM [cytotoxic, partial curve, poor fit]
35 | CCOC(=O)C(C)(C)Oc1ccc(Cl)cc1 | inconclusive: 2.09 µM [cytotoxic, full curve, poor fit]
36 | COC(=O)N1CCN(Cc2cccc(NC(=O)Nc3ccc(C)nc3)c2F)CC1 | inconclusive: 16.6 µM [cytotoxic, partial curve, poor fit]
37 | COCCCOc1cc(C[C@@H](C[C@H](N)[C@@H](O)C[C@H](C(=O)NCC(C)(C)C(N)=O)C(C)C)C(C)C)ccc1OC | inactive
38 | O=c1c(O)c(-c2cc(O)c(O)c(O)c2)oc2cc(O)cc(O)c12 | inconclusive: 37.2 µM [cytotoxic, single point]
39 | CCOc1cc(CC(=O)N[C@@H](CC(C)C)c2ccccc2N2CCCCC2)ccc1C(=O)O | inconclusive: 0.0372 µM [rising, full curve, poor fit]
40 | CN(CCOc1ccc(NS(C)(=O)=O)cc1)CCc1ccc(NS(C)(=O)=O)cc1 | inactive
